The values that follow come from article PMC10870071.

Amino acid sequences for entries named in this document (tags omitted).
UniProt Q13283: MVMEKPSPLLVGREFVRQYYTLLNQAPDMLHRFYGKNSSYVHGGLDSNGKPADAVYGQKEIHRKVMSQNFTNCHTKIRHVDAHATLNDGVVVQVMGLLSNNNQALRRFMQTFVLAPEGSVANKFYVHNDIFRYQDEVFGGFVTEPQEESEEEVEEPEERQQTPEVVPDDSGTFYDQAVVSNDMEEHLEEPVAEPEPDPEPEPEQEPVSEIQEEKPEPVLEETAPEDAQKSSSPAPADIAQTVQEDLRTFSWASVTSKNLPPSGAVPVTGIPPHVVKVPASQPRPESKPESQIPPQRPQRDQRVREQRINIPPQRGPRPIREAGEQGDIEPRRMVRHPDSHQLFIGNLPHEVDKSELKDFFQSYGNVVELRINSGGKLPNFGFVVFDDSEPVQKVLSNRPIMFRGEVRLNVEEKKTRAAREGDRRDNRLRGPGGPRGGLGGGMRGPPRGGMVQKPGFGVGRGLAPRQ

No constants are given. Whether binding was seen depends on the method and setting. Binding seen in cells or lysates may run through a third protein. Here binding means that the protein was enriched with, or labelled near, the bait; the list need not be complete.

The assay has as its target HA-G3BP1 (HA-tagged human Ras GTPase-activating protein-binding protein 1) (human) (UniProt Q13283). The assay can be described thus: affinity purification with mass spectrometry; HA-G3BP1 complex obtained by co-IP with anti-HA antibody from UMUC3 cells stably expressing HA-G3BP1; SDS-PAGE, silver stain, trypsin digestion, nano-LC-MS/MS.

B1: endogenous SLU7 (protein, UniProt O95391 1-586)
chain: MSATVVDAVNAAPLSGSKEMSLEEPKKMTREDWRKKKELEEQRKLGNAPAEVDEEGKDINPHIPQYISSVPWYIDPSKRPTLKHQRPQPEKQKQFSSSGEWYKRGVKENSIITKYRKGACENCGAMTHKKKDCFERPRRVGAKFTGTNIAPDEHVQPQLMFDYDGKRDRWNGYNPEEHMKIVEEYAKVDLAKRTLKAQKLQEELASGKLVEQANSPKHQWGEEEPNSQMEKDHNSEDEDEDKYADDIDMPGQNFDSKRRITVRNLRIREDIAKYLRNLDPNSAYYDPKTRAMRENPYANAGKNPDEVSYAGDNFVRYTGDTISMAQTQLFAWEAYDKGSEVHLQADPTKLELLYKSFKVKKEDFKEQQKESILEKYGGQEHLDAPPAELLLAQTEDYVEYSRHGTVIKGQERAVACSKYEEDVKIHNHTHIWGSYWKEGRWGYKCCHSFFKYSYCTGEAGKEIVNSEECIINEITGEESVKKPQTLMELHQEKLKEEKKKKKKKKKKHRKSSSDSDDEEKKHEKLKKALNAEEARLLHVKETMQIDERKRPYNSMYETREPTEEEMEAYRMKRQRPDDPMASFLGQ
With B1, the binding entry is on record as “binds”.
